These results are taken from paper doi:10.1101/2025.10.10.681713.

For the assay, the target named is T1, LIN9 (mouse (endogenous in urothelial organoids)) (UniProt Q8C735).
T1 sequence: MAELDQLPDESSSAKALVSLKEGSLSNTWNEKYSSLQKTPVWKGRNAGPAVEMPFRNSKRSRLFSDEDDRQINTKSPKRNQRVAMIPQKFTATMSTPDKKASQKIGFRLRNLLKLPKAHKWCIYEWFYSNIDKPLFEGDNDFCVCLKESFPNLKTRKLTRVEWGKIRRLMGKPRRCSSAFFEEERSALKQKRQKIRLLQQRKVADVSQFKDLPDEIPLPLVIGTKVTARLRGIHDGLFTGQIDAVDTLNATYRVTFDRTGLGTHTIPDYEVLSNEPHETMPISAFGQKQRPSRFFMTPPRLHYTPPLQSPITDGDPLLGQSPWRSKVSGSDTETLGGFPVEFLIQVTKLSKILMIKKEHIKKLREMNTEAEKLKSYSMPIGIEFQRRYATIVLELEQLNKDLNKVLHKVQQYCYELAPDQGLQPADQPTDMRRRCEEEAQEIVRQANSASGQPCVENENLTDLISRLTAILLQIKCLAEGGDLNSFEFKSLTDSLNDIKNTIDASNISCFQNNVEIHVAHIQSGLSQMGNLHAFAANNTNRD
In words: affinity purification with mass spectrometry.

These are yes or no findings as the source states them, for the method shown. In cells and extracts the contact can be indirect. Here binding means that the protein was enriched with, or labelled near, the bait; the list need not be complete.

B1: LIN52 (protein, UniProt Q8CD94 1-112)
chain: MASPTDGTDLEASLLSFEKLDRASPDLWPEQLPGVAEFAASFKSPITSSPPKWMAEIERDDIDMLKELGSLTTANLMEKVRGLQNLAYQLGLDESREMTRGKFLNILEKPKK
For the molecule B1, the binding entry is “binds”.

B2: p130 (protein, UniProt Q64700 1-1135)
chain: MASGGNQSPPPPPAAAASSEEEEEDGDAADRAQPAGSPSHQIQQRFEELCSRLNMDEAARAEAWSSYRSMSESYTLEGNDLHWLACALYVACRKSVPTVSKGTAEGNYVSLTRILRCSEQSLIEFFNKMKKWEDMANLPPHFRERTERLERNFTVSAVIFKKYEPIFQDIFKYPQEEQPRQQRGRKQRRQPCTTSEIFHFCWVLFIYAKGNFPMISDDLVNSYHLLLCALDLVYGNALQCSNRKELVNPNFKGLSEDCHPKDSKASSDPPCVIEKLCSLHDGLVLEAKGIKEHFWKPYIRKLFEKKLLKGKEENLTGFLEPGNFGESFKAVNKAYEEYVLAAGNLDERVFLGEDAEEEVGTLSRCLSAASGTESAERTQMRDILQQHLDKSKALRVCTPLTGVRYVQENSPCVTPVSTAAHSLSRLHTMLSGLRNAPSEKLERILRSCSRDPTQAIADRLKEMYEIYSQHFQPDENFSNCAKEIANKHFRFAEMLYYKVLESVIEQEQKRLGDMDLSGVLEHDAFHRSLLACCLEVVAFSHKPPGNFPFIAEIFDVPHYHFYKVIEVFIRAEDGLCREVVKHLNQIEEQILDHLAWKTKSPLWDRIRDNENRVPTCEEVMPPQNLERTDEIYIAGSPLTPRRVGEVRADAGGLGRSITSPTTLYDRYSSPTVSTTRRRLFENDSPSEGSTSGRIPPQPLVNAVPVQNVPGETVSVTPVPGQTLVTMATATVTANNGQTVTIPVQGIANENGGITFFPVQVNVGGQAQAVAGSIQPLSAQALAGSLSSQQVTGTTLQVPGPVAIQQISPGGQQQNPGQPLTSSSIRPRKTSSLALFFRKVYYLAGVRLRDLCIKLDISDELRKKIWTCFEFSIIQCTELMMDRHLDQLLMCAIYVMAKVTKEDRSFQNIMRCYRTQPQARSQVYRSVLIKGKRRNSGSSESRSHQNSPTELNTDRASRDSSPVMRSNSTLPVPQPSSAPPTPTRLTGASSDVEEEERGDLIQFYNNIYRKQIQAFAMKYSQANAQTDTPPLSPYPFVRTGSPRRVQLSQSHPIYISPHNNEAMPSPREKIFYYFSNSPSKRLREINSMIRTGETPTKKRGILLDDGSESPAKRICPENHSALLRRLQDVANDRGSQ
As for B2, the binding result is reported as “binds”.
